PubChem BioAssay AID2685 (National Center for Advancing Translational Sciences (NCATS), 2010)
Some of the results follow. Further columns of the screen follow, without active or inactive calls. The list favours compounds with an active or inconclusive main result. Words in brackets tell the shape of the fitted curve; partial curves, single points and poor fits give uncertain potencies.

Experiment: qHTS Assay for Lipid Storage Modulators in Drosophila S3 Cells;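 for cell number change: cells counted by Cell Tracker Red CMTPX staining in the red channel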
Settings: BODIPY lipid droplet fluorescence, 18-24 h; for cell number change: measured here: cell count max response, cells fed with added oleic acid
Summary of the method: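 Drosophila S3 cells got compounds at several concentrations plus oleic acid (400 uM solution). Laser-scanning cytometry with 488 nm excitation read lipid droplets at 500-530 nm and cells at 575-640 nm. Percent activity was relative to 20 uM Triacsin C.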

[1] = measured here: lipid fluorescence (Fed channel) AC50, cells fed with added oleic acid
[2] = measured here: cell number channel AC50, cells fed with added oleic acid

Row | Compound | cell number change [%] | AC50 [1] | AC50 [2]
1 | CCCn1c(N)c(N(CCOC)C(=O)c2cccc(Cl)c2)c(=O)[nH]c1=O | 17.5 | 0.517 µM [falling, full curve] | –
2 | CC(=O)Nc1ccc(S(=O)(=O)NCCc2ccccn2)cc1 | -8.05 | – | –
3 | C=CCn1c(O)c(N=NC(=S)Nc2ccc(OC)c(Cl)c2)c2ccccc21 | -22.6 | – | –
4 | Cc1cc(C)n(-c2nc(Nc3ccccc3C(F)(F)F)nc(-n3nc(C)cc3C)n2)n1 | -57.8 | 29.1 µM [falling, single point] | 23.1 µM [falling, single point]
5 | CN1CCN(C(=O)c2cc3nc(-c4ccc(Cl)cc4)cc(C(F)(F)F)n3n2)CC1 | 39.7 | 9.2 µM [rising, partial curve] | 14.6 µM [rising, partial curve]
6 | COc1ccc(N(CC(=O)Nc2cccnc2)S(=O)(=O)c2ccccc2)cc1OC | 32.1 | 6.51 µM [rising, partial curve, poor fit] | 32.6 µM [rising, partial curve, poor fit]
7 | Cc1ccccc1Nc1nc(N)nc(COC(=O)CCNS(=O)(=O)c2ccccc2)n1 | – | – | 0.092 µM [rising, full curve, poor fit]
8 | Cc1ccc2c(c1)c1nnc(SCC(=O)Nc3ccccc3C(F)(F)F)nc1n2CC(=O)O | – | 0.731 µM [rising, single point] | –
9 | CCCCOC(=O)C1=C(C)NC(=O)NC1c1ccc(OC)cc1 (centres undefined) | -21.5 | 5.8 µM [falling, full curve] | –
10 | O=C(NCCc1ccccc1)C1CCCN1S(=O)(=O)c1ccc(Cl)cc1 (centres undefined) | 22.9 | – | –
11 | CC1(C(=O)NCc2cccnc2)CCC(=O)N1Cc1cccs1 (centres undefined) | -18 | – | 6.51 µM [falling, single point]
12 | CC(=O)Nc1cc2c(=O)n(Cc3ccccc3)c(C)nc2cc1N1CCOCC1 | – | 4.11 µM [rising, single point] | 6.51 µM [rising, single point]
13 | O=C(CN1CCC(Cc2ccccc2)CC1)NC(=O)NC1CCCCC1 | – | 0.00731 µM [falling, full curve] | –
14 | O=C1CN(C(=O)c2cccs2)c2ccccc2N1 | -36.5 | – | 0.0461 µM [falling, full curve, poor fit]
15 | O=C(Nc1ccccc1)Nc1ccno1 | 9.86 | – | –
16 | CCOC(=O)/C(=C/Nc1ccc(F)c(F)c1)[N+](=O)[O-] | 4.27 | 0.00651 µM [falling, full curve, poor fit] | –
17 | CN(C)S(=O)(=O)c1cccc(NC(=O)CN2C(=O)C3C4C=CC(C4)C3C2=O)c1 (centres undefined) | – | 6.51 µM [rising, single point] | 0.092 µM [rising, full curve, poor fit]
18 | O=C(CSc1nc2c(sc3ccccc32)c(=O)n1Cc1ccccc1)NCC1CCCO1 (centres undefined) | – | 4.11 µM [rising, partial curve] | –
19 | CC(C)Oc1ccc(C(CC(=O)N2CCOCC2)C(C)C)cc1 (centres undefined) | -34.2 | – | 3.66 µM [falling, full curve, poor fit]
20 | Cc1nnc(NC(=O)c2csc3c2CCCC3)s1 | 93.6 | – | 16.4 µM [rising, partial curve]
21 | COc1cc(/C=C(/C#N)C(=O)NCCc2c[nH]c3ccccc23)ccc1OCc1ccccc1F | -10.7 | – | 6.51 µM [falling, single point]

Single entries from the results shown.
AC50 [1], O=C(CN1CCC(Cc2ccccc2)CC1)NC(=O)NC1CCCCC1 reads 0.00731 µM [falling, full curve]
cell number change [%], COc1cc(/C=C(/C#N)C(=O)NCCc2c[nH]c3ccccc23)ccc1OCc1ccccc1F reads -10.7
cell number change [%], O=C1CN(C(=O)c2cccs2)c2ccccc2N1 reads -36.5
cell number change [%], CC(=O)Nc1ccc(S(=O)(=O)NCCc2ccccn2)cc1 reads -8.05
AC50 [1], COc1ccc(N(CC(=O)Nc2cccnc2)S(=O)(=O)c2ccccc2)cc1OC reads 6.51 µM [rising, partial curve, poor fit]

More results follow.

Row | Compound | cell number change [%] | AC50 [1] | AC50 [2]
22 | O=C(Nc1ccc(Cl)c(Cl)c1)N1CCCCCC1 | – | 29.1 µM [falling, single point] | –
23 | Cc1ccc2c(c1)sc1nc(=O)ccn12 | 23.9 | – | 0.259 µM [rising, full curve, poor fit]
24 | O=C(N/N=C\c1cccs1)c1sccc1-n1cccc1 | -28.6 | 29.1 µM [falling, single point] | –
25 | O=C(CSC(=S)N1CCCC1)Nc1cc2c(cc1Br)OCCO2 | 16.8 | 0.58 µM [falling, single point] | 0.13 µM [rising, full curve, poor fit]
26 | CC1CC(OC(=O)C2CCN(S(=O)(=O)c3ccc(F)cc3)CC2)C(=O)O1 (centres undefined) | -18.9 | – | –
27 | CCCN(CC(=O)Nc1ccccc1C)C(=O)CCCc1c[nH]c2ccccc12 | -59.3 | 2.06 µM [falling, partial curve] | 2.06 µM [falling, full curve]
28 | CCCNC(=O)c1ccc(N2CCC3(CC2)CC(c2ccccc2)=NO3)c(NC(=O)c2cccc(C)c2)c1 | – | 0.651 µM [rising, partial curve, poor fit] | –
29 | COC(=O)c1sc2[nH]c(=S)n(N)c(=O)c2c1C | 38.2 | – | –
30 | CCOC(=O)c1c(C)[nH]c(C(=O)OCC(=O)NCc2ccc(C)cc2)c1C | 8.96 | 0.058 µM [rising, full curve, poor fit] | –
31 | CCOC(=O)/C(=N/Nc1ccccc1)N1CCCc2ccccc21 | -44.8 | – | 29.1 µM [falling, single point]
32 | Cc1nn(-c2c(Cl)cc(Cl)cc2Cl)c(=O)c2ccccc12 | -2.13 | – | –
33 | O=C(NN=C1c2ccccc2-c2ccccc21)c1ccccc1Br | -8.93 | 0.58 µM [rising, single point] | 0.731 µM [rising, full curve, poor fit]
34 | CCCNC(=O)c1cc2c(C(F)(F)F)nn(C)c2s1 | 2.76 | – | –
35 | Fc1cccc(-c2n[nH]c(=S)n2-c2ccccc2)c1 | -9.49 | – | –
36 | COc1ccc(NC(=S)NCCN2CCC(C)CC2)cc1Cl | -24.3 | 2.82 µM [falling, partial curve] | –
37 | COc1ccc2c(c1)c(=O)oc1c(C)c(OC(C)C(=O)N[C@@H](Cc3c[nH]c4ccc(O)cc34)C(=O)O)ccc12 (some centres undefined) | 7.45 | – | –
38 | CCNc1c(NS(=O)(=O)c2ccc(C3CCCCC3)cc2)c(=O)oc2ccccc12 | – | 1.64 µM [falling, partial curve] | 1.3 µM [falling, partial curve, poor fit]
39 | COC(=O)C(Cc1ccccc1)NC(=O)CC(C)CC(=O)Nc1ccc(C)cc1 (centres undefined) | -50.8 | 13 µM [falling, partial curve] | 13 µM [falling, partial curve, poor fit]
40 | O=C(CN1C(=O)CCC1=O)Nc1nc(-c2ccc(Oc3ccccc3)cc2)cs1 | 3.58 | 32.6 µM [falling, single point] | –
41 | Cc1ccc(N(CC(=O)NCCc2ccc(Cl)cc2)S(=O)(=O)c2c(C)noc2C)cc1 | -7.98 | – | –
42 | Cc1cc(C)c(S(=O)(=O)N2CCCCC2CCNC(=O)C(=O)NCC2CCCO2)c(C)c1 (centres undefined) | -14.5 | 3.26 µM [falling, partial curve] | –

Row | Compound | cell number change [%] | AC50 [1] | AC50 [2]
43 | CCC(=O)Nc1nc(-c2ccc3c(c2)CC(C)N3S(C)(=O)=O)cs1 (centres undefined) | -46.5 | 18.4 µM [falling, partial curve, poor fit] | 20.6 µM [falling, single point]
44 | Cc1ccc(N2CCN(S(=O)(=O)c3c(C)noc3C)CC2C)cc1 (centres undefined) | – | 0.00517 µM [rising, full curve, poor fit] | –
45 | CCOC(=O)Cc1nnc(Nc2ccc(C(=O)NC)cc2)c2ccccc12 | 24.8 | 32.6 µM [rising, single point] | –
46 | Cc1ccc(Cl)cc1NS(=O)(=O)c1c(C)[nH]c(=O)[nH]c1=O | – | 25.9 µM [rising, single point] | –
47 | CCN(c1ccccc1)S(=O)(=O)c1ccc(Cl)c(NC(=O)COC(=O)c2cccc(OC)c2O)c1 | -30.7 | 3.26 µM [rising, partial curve] | 4.11 µM [rising, partial curve]
48 | CCN(C(=O)Nc1ccccc1)c1ccccc1 | -0.762 | 3.66 µM [falling, single point] | 0.0103 µM [falling, full curve, poor fit]
49 | COc1c(O)cc2oc(-c3ccc(O)c(O)c3)cc(=O)c2c1O | 27.5 | – | –
50 | COc1cccc(-c2csc(NC(=O)Oc3ccccc3)n2)c1 | 26.4 | – | –
51 | COc1ccc(-c2nc3n(c(=O)c2C#N)CCCS3)cc1 | – | 0.082 µM [rising, full curve, poor fit] | 4.11 µM [rising, partial curve, poor fit]
52 | CCc1ccccc1NC(=O)CSc1n[nH]c(-c2cccnc2)n1 | -9.52 | – | –
53 | CC(C)OC(=O)C(C)(C)Oc1ccc(C(=O)c2ccc(Cl)cc2)cc1 | 33.7 | 23.1 µM [rising, partial curve] | 13 µM [rising, partial curve, poor fit]
54 | O=C(NCCCN1CCN(c2ccccc2F)CC1)C1CCC(=O)N1C1CCCC1 (centres undefined) | -0.538 | – | –
55 | Cc1ccc(-n2nc3c(=O)n(CC(=O)c4ccc(F)cc4)nc(C)c3c2C)cc1 | 19.2 | 9.2 µM [rising, partial curve, poor fit] | –
56 | Cn1c(=O)c2c(nc(Sc3ncnn3CC(=O)NC(C)(C)C)n2C)n(C)c1=O | -18.7 | – | –
57 | O=C(Nc1ccc(S(=O)(=O)Nc2ncccn2)cc1)c1ccc(S(=O)(=O)N2CCCC2)cc1 | 15.6 | – | –
58 | C[N+]1(C2CCC3CCCC2C3O)CCCC1 (centres undefined) | -31.2 | 4.11 µM [falling, single point] | –
59 | COc1ccc(/C=N/n2c(N)nc3ccccc32)cc1OC | -9.74 | 23.1 µM [rising, single point] | 1.16 µM [rising, partial curve]
60 | CC(NC(=O)Cc1ccccc1)C1COc2ccccc2O1 (centres undefined) | 131 | – | 20.6 µM [rising, partial curve]
61 | O=[N+]([O-])c1ccccc1CNC(Cc1ccccc1)c1ccccc1 (centres undefined) | 2.45 | 0.461 µM [falling, partial curve, poor fit] | –
